Measurements reported in article PMC11729874, “How J-chain ensures the assembly of immunoglobulin IgM pentamers” (The EMBO Journal, 2024).
No constants are given. Whether binding was seen depends on the method and setting.

Protein sequences, listed by entry. Tags and fused reporters are not part of them. Lines headed by an entry give the natural chain unless they say otherwise; changes in a name come on top.
UniProt Q9BS26: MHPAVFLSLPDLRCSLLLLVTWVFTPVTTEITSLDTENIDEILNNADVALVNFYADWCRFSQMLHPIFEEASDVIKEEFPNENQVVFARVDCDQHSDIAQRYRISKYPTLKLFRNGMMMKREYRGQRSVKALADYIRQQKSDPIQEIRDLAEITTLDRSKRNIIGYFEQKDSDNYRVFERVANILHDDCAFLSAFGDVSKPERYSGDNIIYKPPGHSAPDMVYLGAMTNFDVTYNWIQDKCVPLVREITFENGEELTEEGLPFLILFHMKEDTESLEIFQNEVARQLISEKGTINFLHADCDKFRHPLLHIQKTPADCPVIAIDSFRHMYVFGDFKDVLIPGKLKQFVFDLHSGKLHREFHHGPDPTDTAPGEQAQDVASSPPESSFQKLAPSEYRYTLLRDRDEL

Molecular target: T1, J-chain (JC), expressed in transfected cells (UniProt P01592)
T1 sequence: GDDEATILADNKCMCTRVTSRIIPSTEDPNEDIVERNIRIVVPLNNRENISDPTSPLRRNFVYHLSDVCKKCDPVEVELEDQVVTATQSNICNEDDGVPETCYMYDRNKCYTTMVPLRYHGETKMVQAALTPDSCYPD
Assay: nonreducing SDS-PAGE and western blot of covalent assemblies; HeLa-ERp44KO transfected with JC variants, H-Cµ234tp and/or H-ERp44 variants; RIPA lysates with 10 mM NEM and supernatants; Halo ligands, anti-JC, anti-ERp44, anti-µ

binding: no binding
Substance: H-ERp44 mutant lacking the RDEL motif (from UniProt Q9BS26)
